# From PubChem BioAssay AID493014 (National Center for Advancing Translational Sciences (NCATS), 2011)
# The list shows a part of the results. The main result of the screen is listed elsewhere. These columns were measured beside it and carry no call. Compounds called inactive in the main read-out are mostly missing here. The note in brackets gives the kind of curve behind each potency; many fits are weak.
# Experiment: qHTS Assay to Find Inhibitors of Chronic Active B-Cell Receptor Signaling
# Conditions: ABC-DLBCL IkBa-CBG/CBR reporter, luminescence ratio (green luciferase fused to IkBa over red control in TMD8 lymphoma cells), 4 h
# Method in brief: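 Concentration-response series (up to 46 uM) were applied to TMD8 dual-reporter cells for 4 h at 37C with doxycycline. Green/red ratio, after filter-overlap correction, defined %Activity; red signal alone was normalised to basal cells and zero luminescence.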
# [1] = measured here: CBR red luminescence, cell number
# [2] = measured here: IkBa-CBG green luminescence
Structure (SMILES),AC50 [1],AC50 [2]
c1cnc2ccc(C(c3nnnn3C3CCCC3)N3CCN4CCCC4C3)cc2c1 (stereo not drawn),"0.2 µM [rising, full curve, poor fit]",–
Fc1ccc(NC(=S)N/N=C/c2cccc(Br)c2)c(F)c1,"0.164 µM [falling, full curve, poor fit]",–
Cc1ccc(-n2nnc(-c3nccn3C)n2)cc1,"8.91 µM [falling, partial curve]",–
COc1ccc(OCc2nn3c(-c4ccco4)nnc3s2)cc1,"25.1 µM [falling, partial curve, poor fit]",–
O=C(CCN1CCCC1)c1cccs1,"35.5 µM [rising, single point]",–
C=CCn1c(SCC(=O)c2cc(C)n(C(C)COC)c2C)nc2sc(C)c(C)c2c1=O (stereo not drawn),"16.4 µM [falling, single point]",–
Cc1ccc(-c2ccccc2)n1-c1cccc(C(=O)O)c1,"35.5 µM [falling, single point]",–
N#Cc1cc2c(nc1SCC(=O)O)CCCC2,"1.64 µM [falling, full curve]",–
Cc1ccc(C(=O)Nc2ccc(Nc3ccccc3)cc2)c(Cl)c1,"22.4 µM [rising, single point]",–
CCn1c(=O)c(C(=O)CN(C)Cc2cccc(OC)c2OC)c(N)n(Cc2ccccc2)c1=O,"5.62 µM [falling, single point]",–
COc1ccc(C2/C(=C(/O)c3ccccc3)C(=O)C(=O)N2CCCN2CCOCC2)cc1 (stereo not drawn),"11.2 µM [rising, partial curve]",–
O=C(Cn1nc2ccccc2n1)N/N=C/c1cc([N+](=O)[O-])ccc1O,"3.55 µM [falling, full curve, poor fit]",–
COC(=O)c1c(-c2ccc3ccccc3c2)csc1NC(=O)Cc1ccc(OC)c(OC)c1,"5.01 µM [falling, full curve]",–
Cc1nc(C(=O)NNC(=O)c2cccc(Cl)c2)c(C(F)(F)F)o1,"35.5 µM [falling, single point]",–
C/C(=N\NC(=O)c1ccc(C)cc1)c1c(C)[nH]n(-c2ccccc2)c1=O,"6.31 µM [falling, full curve]",–
Cc1nc(SCC(=O)Nc2ccccc2C(F)(F)F)c(C#N)c(C)c1CC(=O)c1ccc(Br)cc1,"2.31 µM [falling, single point]","4.11 µM [rising, partial curve, poor fit]"
COc1ccc(CCC(=O)N2c3ccccc3CC2C)cc1 (stereo not drawn),"0.00461 µM [falling, full curve, poor fit]",–
COc1ccc(O)c(C(=O)c2cnn(-c3ccccn3)c2)c1,"3.16 µM [rising, partial curve, poor fit]",–
O=C(Oc1ccc(-c2ccccc2)cc1)N1CCOCC1,"29.1 µM [falling, single point]",–
Cc1cc(=O)n2c(nc3ccccc32)[nH]1,"8.2 µM [falling, partial curve, poor fit]",–
CC1CN(C(=O)c2cc([N+](=O)[O-])cc([N+](=O)[O-])c2)CC(C)O1 (stereo not drawn),"4.47 µM [rising, single point]",–

Structure (SMILES),AC50 [1],AC50 [2]
O=C(c1ccc(Cl)c(S(=O)(=O)N2CCCCC2)c1)N1CCCCCC1,"3.98 µM [rising, full curve, poor fit]",–
O=C(CCN1C(=O)/C(=C/c2ccc3c(c2)OCO3)SC1=S)NNC(=O)c1cccnc1,"10 µM [falling, partial curve]",–
O=C(NCc1ccco1)c1sc2cccc(F)c2c1Cl,"3.66 µM [rising, full curve, poor fit]",–
CCOC(=O)COn1c(=O)c(-c2cc3ccccc3o2)[n+]([O-])c2ccccc21,"7.94 µM [falling, partial curve, poor fit]",–
CCN(CC)CCOC(=O)c1ccc(NC(=O)CCCN2C(=O)/C(=C\c3cccs3)SC2=S)cc1,"1.41 µM [falling, full curve]",–
C[C@@]12C(=O)Nc3cc(Cl)ccc3C(=O)N1[C@H]1c3ccccc3OC[C@@H]1[C@@H]2c1ccccc1,"1.64 µM [falling, full curve]","2.31 µM [rising, full curve, poor fit]"
Cc1ccc2c(c1)N(CC(=O)N(Cc1ccccn1)Cc1ccco1)C(=O)C(C(C)C)O2 (stereo not drawn),"32.6 µM [falling, partial curve, poor fit]",–
CCN(CC)S(=O)(=O)c1cc(NC(=O)Cc2ccsc2)ccc1C,"35.5 µM [falling, single point]",–
COc1cccc(-c2cc(C(=O)Nc3cccnc3)c3ccccc3n2)c1,"8.91 µM [falling, partial curve, poor fit]",–
Cc1ccc(OCCC(=O)OCC(=O)NC(=O)NC2CCCCC2)cc1,"2.06 µM [falling, full curve]",–
COC(=O)C1=C(C)N(Cc2ccccc2)C(=NCc2cccc(Cl)c2)N[C@H]1c1cccc(F)c1,"11.2 µM [falling, partial curve]","17.8 µM [rising, single point]"
CCn1c(-c2cccc(Br)c2)n[nH]c1=S,"6.51 µM [rising, single point]",–
O=c1oc2ccccc2cc1-c1nc2ccccc2o1,"35.5 µM [falling, single point]",–
COc1ccccc1N1CCN(C(=O)C(=O)c2cn(CC(=O)N3CCOCC3)c3ccccc23)CC1,"14.1 µM [falling, single point]",–
Cc1cnc(NC(=O)Nc2ccccc2)c(C)n1,"14.1 µM [rising, single point]",–
O=C(CCCN1C(=O)/C(=C/c2ccccc2)SC1=S)N1CCOCC1,"2 µM [falling, partial curve]","12.6 µM [falling, partial curve, poor fit]"
COc1ccc(-c2nc(CCNC(=O)c3ccc(Br)o3)cs2)cc1,"9.2 µM [falling, partial curve]",–
CSc1ccccc1C(=O)NC1CCCCC1,"3.66 µM [rising, single point]",–
CC1Cc2ccccc2N1C(=O)COC(=O)c1ccc(O)cc1 (stereo not drawn),"14.1 µM [falling, partial curve, poor fit]",–
COc1nc(N/N=C/c2ccc(-c3cccc([N+](=O)[O-])c3)o2)nc(N2CCOCC2)n1,"5.8 µM [rising, partial curve, poor fit]",–
c1ccc2[nH]c(CSc3nc4ccccc4s3)nc2c1,"11.2 µM [falling, single point]",–

Structure (SMILES),AC50 [1],AC50 [2]
COc1ccc(C2CC(=O)c3c(C)nc(N4CCN(c5ccccc5)CC4)nc3C2)cc1 (stereo not drawn),"0.58 µM [falling, full curve, poor fit]",–
CN(C)C(=O)c1nc2ccc(Cl)cn2c1CNCc1cccc(OC(F)(F)F)c1,"0.0891 µM [rising, full curve, poor fit]",–
COC(=O)c1[nH]c2ccccc2c1NC(=O)CN1CCN(c2cccc(OC)c2)C(C)C1 (stereo not drawn),"3.26 µM [rising, single point]",–
C=CCSc1nc2sc3c(c2c(=O)[nH]1)CC(C)(CC)OC3 (stereo not drawn),"3.16 µM [rising, full curve, poor fit]",–
CCOc1ccc(-n2c(-c3ccc(Br)cc3)c[n+]3c2CCCCC3)cc1,"35.5 µM [falling, single point]",–
CCC(C)NC(=O)c1cc(-c2ccc3c(c2)OCO3)on1 (stereo not drawn),"7.08 µM [falling, partial curve]",–
c1ccc2[nH]c(CSc3nc4ccccc4o3)nc2c1,"25.9 µM [falling, single point]",–
COc1ccc(C2NC(=O)C(C#N)=C(S)N2c2ccccc2)cc1OC (stereo not drawn),"11.2 µM [rising, partial curve]",–
COc1ccc2c(c1)C(=NNC(=O)c1ccccn1)c1cc(OC)ccc1-2,"1.03 µM [falling, full curve, poor fit]",–
O=C(NC(=S)Nc1ccccc1F)C1CCCCC1,"1.12 µM [rising, full curve, poor fit]",–
CN(C(=O)c1ccc(NC(=O)Cc2ccc(NC(=O)C3CCN(C(=O)C4CC4)CC3)cc2)cc1)C1CC1,"20.6 µM [rising, single point]",–
O=[N+]([O-])c1cccc(-c2nnc3ccc4ccccc4n23)c1,"0.326 µM [rising, partial curve, poor fit]",–
COc1ccc2sc(-c3ccc(N(C)C)cc3)c(C#CC(C)(C)O)c2c1,"8.2 µM [rising, partial curve]","18.4 µM [falling, single point]"
CN1CCC(N(C)C(=O)c2cccc(S(=O)(=O)N3CCc4ccccc43)c2)CC1,"9.2 µM [rising, partial curve]",–
Clc1ccc(-c2cc(-c3ccccn3)on2)c(Cl)c1,"2.24 µM [rising, partial curve, poor fit]",–
COC(=O)c1cnn2c(C(F)(F)F)cc(-c3ccccc3)nc12,"2.91 µM [falling, full curve]",–
C[C@@H](C(=O)NCc1c(F)cccc1Cl)N1C(=O)N2CCc3c([nH]c4ccccc34)[C@@]2(C)C1=O,"14.1 µM [falling, single point]",–
COC(=O)c1ccccc1Oc1nc(Cl)cc(OC)n1,"29.1 µM [rising, single point]",–
CCN(CC)S(=O)(=O)c1ccc(C(=O)N2CCN=C2SCc2cccnc2)cc1,"6.51 µM [rising, single point]",–
CC(=O)Nc1nc2ccc(Br)cc2s1,"1.26 µM [rising, full curve]","11.2 µM [falling, partial curve, poor fit]"

# Some of these compounds in order of length of the SMILES, low to high.
Structure (SMILES),AC50 [1],AC50 [2]
O=C(CCN1CCCC1)c1cccs1,"35.5 µM [rising, single point]",–
CC(=O)Nc1nc2ccc(Br)cc2s1,"1.26 µM [rising, full curve]","11.2 µM [falling, partial curve, poor fit]"
O=C(Oc1ccc(-c2ccccc2)cc1)N1CCOCC1,"29.1 µM [falling, single point]",–
COc1ccc(O)c(C(=O)c2cnn(-c3ccccn3)c2)c1,"3.16 µM [rising, partial curve, poor fit]",–
Cc1ccc(OCCC(=O)OCC(=O)NC(=O)NC2CCCCC2)cc1,"2.06 µM [falling, full curve]",–
O=[N+]([O-])c1cccc(-c2nnc3ccc4ccccc4n23)c1,"0.326 µM [rising, partial curve, poor fit]",–
COc1cccc(-c2cc(C(=O)Nc3cccnc3)c3ccccc3n2)c1,"8.91 µM [falling, partial curve, poor fit]",–
Cc1nc(C(=O)NNC(=O)c2cccc(Cl)c2)c(C(F)(F)F)o1,"35.5 µM [falling, single point]",–
COc1ccc2c(c1)C(=NNC(=O)c1ccccn1)c1cc(OC)ccc1-2,"1.03 µM [falling, full curve, poor fit]",–
CN(C)C(=O)c1nc2ccc(Cl)cn2c1CNCc1cccc(OC(F)(F)F)c1,"0.0891 µM [rising, full curve, poor fit]",–
C=CCn1c(SCC(=O)c2cc(C)n(C(C)COC)c2C)nc2sc(C)c(C)c2c1=O (stereo not drawn),"16.4 µM [falling, single point]",–
CCn1c(=O)c(C(=O)CN(C)Cc2cccc(OC)c2OC)c(N)n(Cc2ccccc2)c1=O,"5.62 µM [falling, single point]",–
C[C@@H](C(=O)NCc1c(F)cccc1Cl)N1C(=O)N2CCc3c([nH]c4ccccc34)[C@@]2(C)C1=O,"14.1 µM [falling, single point]",–
